The target in the assay is T1, outer dense fiber protein ODF1, FLAG-tagged (mouse) (UniProt Q61999).
T1 sequence: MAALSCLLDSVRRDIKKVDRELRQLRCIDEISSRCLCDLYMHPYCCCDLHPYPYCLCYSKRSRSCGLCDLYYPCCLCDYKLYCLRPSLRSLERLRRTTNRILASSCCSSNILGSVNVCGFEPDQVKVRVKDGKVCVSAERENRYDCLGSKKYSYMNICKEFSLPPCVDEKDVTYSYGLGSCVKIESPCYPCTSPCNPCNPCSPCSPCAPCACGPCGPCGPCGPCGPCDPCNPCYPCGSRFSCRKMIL
The experiment in a line: co-IP; FLAG-Odf1 and HA-Tmem232 co-transfected into HEK293T cells, 48 h; lysate incubated with anti-FLAG antibody at 4 °C overnight, Protein A/G agarose beads; blotted with FLAG and HA antibodies.

These are yes or no findings as the source states them, for the method shown. In cells and extracts the contact can be indirect. Some entries that bind do so weakly or less than the wild type. Tags and fused reporters may be left off the sequences shown.

B1: transmembrane protein 232 (TMEM232), HA-tagged (protein, UniProt Q5K6N0-1 1-675)
chain: MKAYKPPVVNKFGVISSTYHEELLKSIFESSNRRKSQKPKPSFSISKEFILRFNHTDNPAEEEELLEQARRLIVRSKRKLGLKTLGSGKHVHLPTAWAEVIYLAQCKGEIQDEALNMLHASLDHVSFDHDQLPALFFLAESVLYRLCCDAFMKGYLYSVEIKLVKIGYLIFLRLFVFFLHGHLESFKQHLLRLQPYLYALHFSEPSYYKYPNIISNVQFILKTSEIICKRELHSEPFVESPDETEDPYSDLNHLQLNKRGYEVNHLLWHSVAAWSCVQNNRPQLTEVLEHLLFYKTQLQTKCWLDSALALMVLGEAAKLDMACLKTLMDLVTDFLENILSAQNQEENYNIYDTSWASEIVFTYTTIIAEVCLYAATSDLRKTALIGFCACKSPQQGISLTDKSEELPELDGASILTLLKYFSSRISDNCEKVIWIGYYGIVYNLVKMSWELQGEQDQDGLRNMIWQTLQKIKDYEQDPRIRCALVIAQAELNGPSDPFCTKATPNSGEEVFSKYIGWRIATTLSRLFFPSLDVAPPKTPVEVDLPRKHTIRERQPAKKRVLRFILKDHSSVVEVSMTPYPNFFTKADKKLEEIIDHHWQKDMEARKREEEAYKAQNQKDKEEKEKIHFQEIMKQRERKLNKQTKPYEIILSEKESGSEKKCGFFELKPSTAPNAK
B1: the binding entry is on record as “binds”.

The record behind these values is article PMC10296807.
